Source: PubChem BioAssay AID1347076 (National Center for Advancing Translational Sciences (NCATS), 2019)
The whole screen tested about 400,000 compounds, of which about 13,000 (3.2%) were called active. This list was built around the results that the source calls inconclusive (neither active nor inactive); the mix of calls is not that of the screen. Calls follow the shape of the dose curve; as a rule, active = well fitted cell-killing curve with a large enough effect; inconclusive = small, poorly fitted or top-dose-only effect, or effect the other way; inactive = flat fitted curve, though single readings scatter. A potency beside an inconclusive call is a rough fit, not a confirmed value.
% is scaled to controls: 0 for no effect and ±100 for the full control effect; potency is read from the fitted curve at half-maximal effect.

Assay: qHTS assay for MDR1-selective chemotherapeutics: Primary screen using the drug-selected MDR subline cells KB-V1; also: nearly all actives have a fitted effect of over 60% in size
Conditions: KB-V1 MDR cells viability, CellTiter-Glo, 72 h; activity change, negative = cytotoxicity: at 46.1 µM (top of the series)
Procedure, shortened: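 Cells of the MDR subline KB-V1 are plated, dosed with compound at multiple concentrations, and incubated 72 h at 37 degrees C; CellTiter-Glo is then added and luminescence read after 10 min.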
For `CCc1ccc(C(=O)c2cn(CC(=O)Nc3ccc(F)cc3)c3ccc(OC)cc3c2=O)cc1`, the “activity change, negative = cytotoxicity” value was inactive: -3.45%.
For `CCc1nc2c(OCc3ccc(C(F)(F)F)cc3)cccn2c1N(C)C(=O)c1ccncc1`, the Potency was inconclusive: 3.26 µM [cytotoxic, partial curve, poor fit].
In the case of `CCc1ccc(C2NC(=S)NC3=C2C(=O)CCC3)cc1` (stereo not given), the Potency is reported as inconclusive: 20.6 µM [cytotoxic, single point].
In the case of `Cc1ccc(CSc2ncc(Cl)c(C(=O)NCCc3ccc(S(N)(=O)=O)cc3)n2)cc1`, the Potency is reported as inconclusive: 32.6 µM [cytotoxic, single point].
With `S=c1[nH]nc(C2CCCCC2)n1/N=C/C(Cl)=C\c1ccccc1` the Potency was inconclusive: 32.6 µM [cytotoxic, single point].
In the case of `O=C(CSc1nnc(CNc2ccc(Cl)cc2)o1)Nc1nc2c(s1)CCCC2`, the Potency is reported as inconclusive: 29.1 µM [cytotoxic, single point].
In the case of `CCOC(=O)C1CCN(C(=O)CCS(=O)(=O)c2cc3c(cc2Cl)NC(=O)CO3)CC1`, the activity change, negative = cytotoxicity is reported as inconclusive: -68.7%.
For `Cc1ccc(C(=O)OCC(=O)NCc2cccs2)cc1C`, the Potency was inconclusive: 29.1 µM [rising, single point].
With `O=S(=O)(c1ccc(F)cc1)N1CCC(O)(c2ccc3c(c2)OCO3)CC1` the Potency was inconclusive: 29.1 µM [cytotoxic, single point].
With `O=C(CCS(=O)(=O)c1ccc2c(c1)NC(=O)CS2)NCc1ccccc1Cl` the Potency was inconclusive: 29.1 µM [rising, single point].
For `CC(C)(C)NCC(O)COc1cccc2c1CCC(=O)N2` (stereo not given), the “activity change, negative = cytotoxicity” value was inactive: -1.13%.
In the case of `COc1ccccc1CCNC(=O)c1c(N)[nH]c(C(=O)c2ccccc2)c1-c1ccc(Br)cc1`, the Potency is reported as active: 14.6 µM.
In the case of `Cc1cc(C(=O)NC2CCCN(Cc3ccc(Cl)cc3)C2)n(C)n1` (stereo not given), the “activity change, negative = cytotoxicity” value is reported as inactive: 10%.
For `COc1cc(NC(=O)c2ccc3c(SCC(=O)O)c4c(nc3c2)CCC4)cc(OC)c1OC`, the “activity change, negative = cytotoxicity” value was inactive: 0%.
For `CC1CCN(CC(=O)NCc2ccco2)CC1`, the “activity change, negative = cytotoxicity” value was inactive: -4.2%.
In the case of `COc1ccc(NC(=O)CSc2nc(-c3ccc(OC)cc3)[nH]c2-c2ccc(OC)cc2)cc1`, the “activity change, negative = cytotoxicity” value is reported as inactive: 1.68%.
For `COC(=O)c1ccccc1NC(=O)Cc1nc(-c2ccccc2)sc1-c1ccc(C)cc1`, the Potency was inconclusive: 18.4 µM [cytotoxic, single point].
With `CC1(Cc2ccccc2F)C(=O)Nc2c(Cl)ccc(Cl)c21` (stereo not given) the “activity change, negative = cytotoxicity” value was inactive: 1.68%.
For `CN1CCN(CC(=O)Nc2cccc([N+](=O)[O-])c2)CC1`, the “activity change, negative = cytotoxicity” value was inactive: -17.3%.
In the case of `CC(C)(C)NS(=O)(=O)c1ccc(NC(=S)NC(=O)C2CCC2)cc1`, the Potency is reported as inconclusive: 13 µM [cytotoxic, partial curve].
